PubChem BioAssay AID1259425, University of Nebraska Medical Center, 2018
Here is one part, drawn at random, of about 14,000 deposited reagents. No sequences are given here. The record does not give: the time to read-out.

Aim: 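Compare each knockdown with KSR1 silencing using changes in marker transcripts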 (primary screen)
System: HCT116 human colon cancer cells
Reagents: siRNA pool against human genes, 50 nM siRNA
Measurement: 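mRNA of six signature genes measured together by branched-DNA assay after 50 nM siRNA pool, blank removed, divided by geometric mean of two housekeeping genes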
Reading the numbers: BNIP3L mRNA: higher = more BNIP3L transcript after knockdown; NDRG1 mRNA: higher = more NDRG1 transcript after knockdown; BNIP3 mRNA: higher = more BNIP3 transcript after knockdown; ALDOC mRNA: higher = more ALDOC transcript after knockdown; ACSL5 mRNA: higher = more ACSL5 transcript after knockdown

gene,"BNIP3L mRNA, set 1","NDRG1 mRNA, set 1","BNIP3 mRNA, set 1","ALDOC mRNA, set 1","ACSL5 mRNA, set 1"
TMEM222 (GeneID 84065),0.336,0.29,0.499,0.0501,0.361
BAD (GeneID 572),0.197,0.185,0.357,0.0119,0.269
PERM1 (GeneID 84808),0.135,0.518,0.236,0.00864,0.162
IFITM2 (GeneID 10581),0.0702,0.0918,0.204,0.0209,0.117
VAT1L (GeneID 57687),0.144,0.0653,0.235,0.0269,0.211
CALCOCO2 (GeneID 10241),0.109,0.114,0.351,0.0193,0.123
SULF2 (GeneID 55959),0.163,0.117,0.25,0.05,0.21
ATL1 (GeneID 51062),0.126,0.157,0.327,0.0435,0.264
MBL2 (GeneID 4153),0.121,0.0957,0.296,0.00951,0.197
CAPNS1 (GeneID 826),0.11,0.15,0.218,0.0101,0.0661
RAPGEF2 (GeneID 9693),0.0614,0.363,0.29,0.0188,0.132
ATP1B2 (GeneID 482),0.0622,0.176,0.232,0.0192,0.216
RNF13 (GeneID 11342),0.0828,0.114,0.319,0.0248,0.141
USP48 (GeneID 84196),0.129,0.121,0.188,0.0597,0.329
DESI2 (GeneID 51029),0.131,0.304,0.41,0.026,0.133
TRMT2B (GeneID 79979),0.189,0.206,0.352,0.0236,0.214
FBXO3 (GeneID 26273),0.033,0.33,0.276,0.0135,0.122
CLSTN1 (GeneID 22883),0.0639,0.369,0.228,0.0347,0.118
ADAT1 (GeneID 23536),0.254,0.302,0.333,0.0269,0.321
PNMA8A (GeneID 55228),0.211,0.63,0.531,0.0725,0.246

An excerpt from above, showing only “NDRG1 mRNA, set 1”:
VAT1L (GeneID 57687)	0.0653
CALCOCO2 (GeneID 10241)	0.114
